Experimental findings from publication PMC9040617 are described below.

No constants are given. Whether binding was seen depends on the method and setting. In cells and extracts the contact can be indirect. These calls come from enrichment with a bait or labelling near it, and not all partners need be listed. A no says only that the protein was not detected with the bait.

For this experiment, the target named is 4468-D61F-MBP (Myxococcus xanthus DK1622) (UniProt Q1D3Y4). Briefly: affinity purification with mass spectrometry; purified MBP-tagged MXAN_4468 (wild type, D61V or D61F) plus MBP filler mixed with the supernatant of sonicated DK1622 cells, 4°C for 4 h; washed on the column, eluted with 10 mM maltose; eluate identified by mass spectrometry; MBP plus filler and filler alone as controls; only the target purified.

B1: HrcA (MXAN_6726) (protein, UniProt Q1CXN0 1-343)
chain: MSEELGEREKEVLRAVVQEYISTGGPVGSQQLTRRPGFEVSSATMRNVLADLEELGFLEKPHTSAGRVPTDQGYRFYVDTLVKLKDPTPRDRELIHAGLAHEADLAEMLGEASRILHSLTRHAGVVVAPRPESAVFRRIEFVRLREDRVLAILVGQSGQVHNKAITVEFPITSDELLKASNYLSELLREVPLESARERIRAEMDQEQALYNALTAKALKLGAAATDLASTERMLIQGTGSFFEQPEFADVERMRALFRALDEKHKLLSLLDRVQVANEMQIFIGAESDFSAAGDVTVIASPYGNQEQVLGTVGVIGPTRMDYRRVIPLVNFTAQVLSRVLEKV
Consider B1, for which the binding entry is on record as “no binding”.
